Assay results taken from PubChem BioAssay AID1487 (National Center for Advancing Translational Sciences (NCATS), 2009).
“And” between values parts separate entries of the source, which are not always exact repeats. Equal entries are not always repeated. The list shows a part of the results. The main result of the screen is listed elsewhere. These columns were measured beside it and carry no call. Most of these compounds were active or inconclusive in the main read-out, so they are no random draw. The note in brackets gives the kind of curve behind each potency; many fits are weak.

Assay: qHTS Assay for Modulators of Lamin A Splicing
Conditions: HeLa LMNA splicing GFP/RFP minigene ratio, 48 h
In short: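 S3 HeLa stable clones carrying a lamin A-EGFP splicing minigene plus DsRed2 were seeded at 600 cells/well in Opti-MEM with 2% FBS, pin-dosed and incubated 48 h at 37°C. Acumen cytometry (488 nm) gave the GFP/RFP total-intensity ratio.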

[1] = measured here: RFP viability control channel
[2] = measured here: GFP splicing reporter channel

Structure (SMILES) | AC50 [1] | AC50 [2]
CC(NS(=O)(=O)c1ccccc1)C(c1cccs1)N1CCOCC1 (centres undefined) | 3.16 µM [rising, single point] | 
NC(=O)C1CCN(c2ccc(S(=O)(=O)N3CCC(Cc4ccccc4)CC3)cn2)CC1 | 0.01 µM [falling, full curve, poor fit] | 7.94 µM [falling, partial curve, poor fit]
O=C1c2ccccc2-c2onc3ccc(Oc4ccccc4)c1c23 | 35.5 µM [falling, single point] | 35.5 µM [falling, single point]
CN(C(=O)c1ccccc1)c1nc2ccccc2s1 | 25.1 µM [rising, single point] | 12.6 µM [rising, single point]
CC1(C)Cc2ccccc2-c2c1c(=O)n(Cc1ccccc1)c1nnnn21 | 35.5 µM [rising, single point] | 35.5 µM [rising, single point]
Fc1ccc(N2CCN(Cc3cnc(Oc4ccc(Br)cc4)s3)CC2)cc1 | 20 µM [rising, partial curve] | 5.01 µM [rising, partial curve]
COc1cc(NC(=O)COc2cccc(OC)c2)cc(OC)c1 |  | 8.91 µM [rising, partial curve]
COc1nc(NCCC2=CCCCC2)nc(OC)n1 |  | 11.2 µM [rising, partial curve]
O=C(c1ccc2c(c1)N(Cc1cccc(Cl)c1)C(=O)c1ccccc1S2(=O)=O)N1CCc2ccccc21 |  | 0.282 µM [rising, full curve, poor fit]
Cc1cccc(-n2nc(C)c3c2NC2=C(C(=O)CCC2)C3c2ccccn2)c1 (centres undefined) |  | 0.00794 µM [rising, full curve, poor fit]
O=C(NCc1cccnc1)c1ccc(-c2cc3ccccc3oc2=O)cc1 |  | 12.6 µM [rising, partial curve]
O=C(NN=C1CCN(Cc2ccccc2)CC1)c1cc2ccccc2cc1O |  | 31.6 µM [rising, single point]
Oc1c(Cl)cc(Cl)c2cccnc12 | 6.31 µM [falling, partial curve, poor fit] and 3.98 µM [falling, full curve, poor fit] | 0.355 µM [falling, full curve]
CC(=O)c1sc(Nc2nc3ccc(F)cc3s2)nc1C | 14.1 µM [rising, single point] | 10 µM [rising, partial curve]
O=C(NCc1ccccc1)C(=O)NCC1COc2ccccc2O1 (centres undefined) | 10 µM [rising, partial curve] | 
Cc1ccc2c(c1)N(C(=O)Nc1ccc(Br)cc1F)CCO2 | 0.316 µM [falling, partial curve] | 3.55 µM [falling, partial curve]
CC(NC(=O)/C(C#N)=C/c1ccc(Cl)c([N+](=O)[O-])c1)c1ccccc1 (centres undefined) | 14.1 µM [falling, partial curve] | 11.2 µM [falling, partial curve]
CCOC(=O)N1CCC(N(C(=O)Nc2ccc(Cl)c(Cl)c2)C(C)CC)CC1 (centres undefined) | 31.6 µM [rising, single point] | 
COc1ccccc1N1CCN(CCCNc2c(C)c(=O)n(C)c(=O)n2C)CC1 |  | 0.0224 µM [falling, full curve, poor fit]
CC(C)(C)OC(=O)C(Cc1ccc(OC(C)(C)C)cc1)NC(=O)CNC(=O)OCc1ccccc1 (centres undefined) | 25.1 µM [rising, partial curve] | 17.8 µM [rising, single point]
COc1ccc(CCNC(=O)c2cnn(-c3cccc(C)c3)c2C2CCNCC2)cc1OC | 0.00501 µM [falling, full curve, poor fit] | 
COc1ccc(CNc2oc(COc3ccc(Cl)cc3)nc2C#N)cc1 | 22.4 µM [rising, single point] | 11.2 µM [rising, partial curve]
O=C(c1ccccc1)N1CCC(c2nc3ccccc3o2)CC1 | 3.55 µM [falling, partial curve] | 
Cc1ccc(-c2nc(CSc3nc4ccccc4c(=O)n3CCO)cs2)cc1 |  | 35.5 µM [rising, single point]
COc1ccc2c(c1)CCN(C(=O)CCl)C2C1C(=O)CCCC1=O (centres undefined) | 11.2 µM [falling, single point] | 
O=C(N/N=C/c1cc(Br)c(O)c(Br)c1)c1cccc(C(F)(F)F)c1 | 14.1 µM [rising, partial curve] | 
CC(=O)c1ccc(NC(=O)CSc2nnc(-c3ccncc3)n2-c2ccccc2)cc1 |  | 0.0316 µM [falling, full curve, poor fit]
CCOC(=O)c1nn(-c2ccccc2)c(C#N)c1NC(=O)c1nn(CC)cc1Br |  | 0.794 µM [rising, partial curve, poor fit]

Reformatted field by field: part of the list above
O=C1c2ccccc2-c2onc3ccc(Oc4ccccc4)c1c23
  AC50 [1]: 35.5 µM [falling, single point]; AC50 [2]: 35.5 µM [falling, single point]
COc1ccc(CNc2oc(COc3ccc(Cl)cc3)nc2C#N)cc1
  AC50 [1]: 22.4 µM [rising, single point]; AC50 [2]: 11.2 µM [rising, partial curve]

(listing goes on)

Structure (SMILES) | AC50 [1] | AC50 [2]
COc1ccc(OC)c(CN2CCC(C(=O)N(C)CCc3ccc(OC)c(OC)c3)CC2)c1 | 28.2 µM [falling, partial curve] | 
N#Cc1cnn2ccc(-c3cc(N4CCOCC4)ccc3[N+](=O)[O-])nc12 |  | 0.501 µM [rising, partial curve, poor fit]
N#Cc1nc(-c2ccc(OCc3ccccc3Cl)cc2)oc1NCCCn1ccnc1 | 35.5 µM [falling, single point] | 
Cc1c(CCOC(=O)C23CC4CC(CC(C)(C4)C2)C3)sc[n+]1CC(=O)c1ccccc1 | 35.5 µM [rising, single point] | 
CC(=O)Nc1ccc(NC(=O)c2csnn2)cc1 | 0.0631 µM [falling, full curve, poor fit] | 
COc1ccc(CNC(=O)COC(=O)c2n[nH]c3ccccc23)cc1 |  | 17.8 µM [rising, single point]
O=C(C1CC1)N1CCc2cc(S(=O)(=O)N(CCO)Cc3ccccc3)ccc21 | 35.5 µM [rising, single point] | 
CCOC(=O)N1CCC(NC(=O)c2sc(-n3cccc3)nc2C)CC1 | 35.5 µM [rising, single point] | 
COc1ccc(C(C[N+](=O)[O-])C2(c3ccc(OC)c(OC)c3)C(=O)c3ccccc3C2=O)cc1 (centres undefined) | 15.8 µM [rising, partial curve] | 
COc1cccc(C2=CC(c3cccc(OC)c3OC(F)F)n3nnnc3N2)c1 (centres undefined) | 17.8 µM [rising, single point] | 
COc1ccc(Nc2cc(C)nc3ccccc23)cc1 | 1.58 µM [rising, full curve] | 
Nn1cc(-c2ccccc2)nc1SCC(=O)N1CCN(S(=O)(=O)c2ccc3ccccc3c2)CC1 | 35.5 µM [rising, single point] | 
Cc1ccc(NC(=O)CSc2nnc(Cc3cccn3C)n2-c2ccc(F)cc2)cc1 | 0.00447 µM [rising, full curve, poor fit] | 
CCCCc1nn2c(=O)cc(COC(=O)c3cccc(NC(=O)c4cccs4)c3)nc2s1 | 22.4 µM [rising, partial curve, poor fit] | 5.62 µM [rising, partial curve, poor fit]
CCc1ccc(N2C(=O)CC(N3CCN(Cc4ccc5c(c4)OCO5)CC3)C2=O)cc1 (centres undefined) |  | 8.91 µM [rising, partial curve, poor fit]
Cc1cccc(/C=C/C(=O)c2cc(Br)ccc(=O)c2O)c1 | 20 µM [rising, single point] | 
O=[N+]([O-])c1ccc(S(=O)(=O)Nc2ccc(-c3csc(-c4ccccc4)n3)cc2)cc1 | 35.5 µM [falling, single point] | 25.1 µM [falling, single point]
NC(=O)c1c(NC(=O)CCCC(=O)O)sc2c1CCCCCC2 | 1.26 µM [falling, full curve, poor fit] | 1.12 µM [falling, partial curve, poor fit]
O=C(O)c1cn(Cc2ccccc2)c2ccccc2c1=O | 11.2 µM [rising, single point] | 11.2 µM [rising, partial curve, poor fit]
COc1ccc(-n2c(C)cc(C(=O)COC(=O)c3cc(NC(=O)c4cccs4)c(OC)c(OC)c3)c2C)cc1 | 17.8 µM [rising, partial curve, poor fit] | 10 µM [rising, partial curve]
COc1ccccc1/C=C/C=N/NC(=O)Cc1cccs1 | 28.2 µM [rising, single point] | 
Cc1c(Cl)cccc1-n1ncc(C(=O)NC2CCCC2)c1C1CCN(C(=O)OC(C)(C)C)CC1 | 6.31 µM [falling, partial curve, poor fit] | 3.98 µM [falling, full curve, poor fit]
CC(C)(C)NC(=O)NC(=O)CN1CCN(Cc2ccccc2)CC1 | 0.0398 µM [falling, full curve, poor fit] | 
Cc1cc(C)nc(NCC(O)CNc2ccccc2Cl)n1 (centres undefined) | 31.6 µM [rising, single point] | 14.1 µM [rising, single point]
O=Cc1cc2ccccc2nc1SCc1ccc(Cl)cc1 | 20 µM [rising, single point] | 35.5 µM [rising, single point]
O=c1oc2ccccc2c(NCc2ccccc2)c1[N+](=O)[O-] | 25.1 µM [rising, single point] | 
Cc1ccc(S(=O)(=O)N2CCCC2C(=O)Nc2nc3c(s2)CCCC3)cc1 (centres undefined) | 20 µM [rising, partial curve, poor fit] | 
